Measured values taken from PubChem BioAssay AID2685 (National Center for Advancing Translational Sciences (NCATS), 2010).
The list shows a part of the results. Further columns of the screen follow, without active or inactive calls. The list favours compounds with an active or inconclusive main result. Words in brackets tell the shape of the fitted curve; partial curves, single points and poor fits give uncertain potencies.

Test: qHTS Assay for Lipid Storage Modulators in Drosophila S3 Cells;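 as to cell number change: cells counted by Cell Tracker Red CMTPX staining in the red channel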
Details: BODIPY lipid droplet fluorescence, 18-24 h; for cell number change: measured here: cell count max response, cells fed with added oleic acid
How it was run: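 Drosophila S3 cells got compounds at several concentrations plus oleic acid (400 uM solution). Laser-scanning cytometry with 488 nm excitation read lipid droplets at 500-530 nm and cells at 575-640 nm. Percent activity was relative to 20 uM Triacsin C.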

[1] = measured here: lipid fluorescence (Fed channel) AC50, cells fed with added oleic acid
[2] = measured here: cell number channel AC50, cells fed with added oleic acid

Row | Compound | cell number change [%] | AC50 [1] | AC50 [2]
1 | CCOc1ccc(S(=O)(=O)/N=C(/Nc2ccc(OC)cc2)c2ccccc2)cc1 | -0.578 | 16.4 µM [rising, single point] | –
2 | O=C(COc1ccc(F)cc1)Nc1ccccc1N1CCOCC1 | 32.5 | 2.31 µM [rising, partial curve] | 2.91 µM [rising, partial curve]
3 | CCOC(=O)CCC(=O)Nc1ccc(S(=O)(=O)N2CCCC2)cc1 | -77.4 | – | –
4 | Nc1ccc(-c2nc3ccccc3s2)cn1 | -8.57 | – | –
5 | CCN1CCc2c(sc(NC(=O)c3ccc(C(=O)c4ccccc4)cc3)c2C(N)=O)C1 | -35.6 | 14.6 µM [falling, partial curve] | 8.2 µM [falling, partial curve]
6 | CCOc1ccc(-c2csc(NC(=O)c3ccco3)n2)cc1 | -15.5 | – | –
7 | O=C(CSc1nc2ccccc2s1)c1cc2ccccc2o1 | – | 0.13 µM [rising, full curve, poor fit] | 0.0651 µM [rising, full curve, poor fit]
8 | CCC1(c2ccccc2)NC(=S)N(c2cccc(C)c2C)N1 (stereo not given) | 25.8 | 11.6 µM [rising, partial curve] | –
9 | CC1(C)Cc2c(sc3[nH]c(=S)[nH]c(=O)c23)CO1 | 16.5 | – | 6.51 µM [rising, single point]
10 | Cc1ccc(C(=O)OCc2nnc(-c3ccccc3)o2)o1 | -1.87 | 0.651 µM [rising, partial curve, poor fit] | –
11 | CC(=O)Oc1ccc(/C=C2/C(=O)N(c3ccccc3)N=C2C)cc1 | -8.33 | – | –
12 | COc1ccc(-n2c(O)c(/C=C3\C=Nc4ccccc43)c(=O)[nH]c2=O)cc1 | 12 | – | –
13 | CCOC(=O)c1c(/N=C/N(C)C)sc(/C=N/Nc2ccccc2)c1-c1ccc(Cl)cc1 | -50.9 | 6.51 µM [falling, single point] | 8.2 µM [falling, partial curve, poor fit]
14 | Cc1ccc(NC(=O)c2ccccc2NC(=O)c2cccnc2)cc1 | -6.82 | 10.3 µM [falling, partial curve] | –
15 | Cc1cc(C)cc(N(CC(=O)N2CCN(c3ccccc3)CC2)S(=O)(=O)c2c(C)noc2C)c1 | 16.7 | 18.4 µM [rising, single point] | –
16 | CCS(=O)(=O)N1N=C(c2ccc(NS(C)(=O)=O)cc2)CC1c1ccccc1 (stereo not given) | -29.5 | 2.31 µM [falling, partial curve] | 0.103 µM [falling, full curve, poor fit]
17 | CC(C)C(=O)Nc1ccc(C(=O)NNC(=O)CCCOc2ccc(Cl)cc2Cl)cc1 | -2.79 | – | –
18 | Cn1ccnc1SCC(=O)c1cccc(Br)c1 | 47.1 | – | 23.1 µM [rising, single point]
19 | CC1(C)N=C2C(=[N+]1[O-])CCC/C2=N\O | 30.4 | – | 5.8 µM [rising, single point]
20 | Cc1ccc(C(=O)C(C)OC(=O)CNS(=O)(=O)c2ccc(C)cc2)cc1 (stereo not given) | -7.94 | 0.092 µM [falling, full curve, poor fit] | –

Structural class, the entries above with nitrogen in an aromatic ring.
Row | Compound | cell number change [%] | AC50 [1] | AC50 [2]
4 | Nc1ccc(-c2nc3ccccc3s2)cn1 | -8.57 | – | –
6 | CCOc1ccc(-c2csc(NC(=O)c3ccco3)n2)cc1 | -15.5 | – | –
7 | O=C(CSc1nc2ccccc2s1)c1cc2ccccc2o1 | – | 0.13 µM [rising, full curve, poor fit] | 0.0651 µM [rising, full curve, poor fit]
9 | CC1(C)Cc2c(sc3[nH]c(=S)[nH]c(=O)c23)CO1 | 16.5 | – | 6.51 µM [rising, single point]
10 | Cc1ccc(C(=O)OCc2nnc(-c3ccccc3)o2)o1 | -1.87 | 0.651 µM [rising, partial curve, poor fit] | –
12 | COc1ccc(-n2c(O)c(/C=C3\C=Nc4ccccc43)c(=O)[nH]c2=O)cc1 | 12 | – | –
14 | Cc1ccc(NC(=O)c2ccccc2NC(=O)c2cccnc2)cc1 | -6.82 | 10.3 µM [falling, partial curve] | –
15 | Cc1cc(C)cc(N(CC(=O)N2CCN(c3ccccc3)CC2)S(=O)(=O)c2c(C)noc2C)c1 | 16.7 | 18.4 µM [rising, single point] | –
18 | Cn1ccnc1SCC(=O)c1cccc(Br)c1 | 47.1 | – | 23.1 µM [rising, single point]

The listing continues:

Row | Compound | cell number change [%] | AC50 [1] | AC50 [2]
21 | Cc1cccc(/C=N/Nc2nncc3ccccc23)c1 | 35.2 | 10.3 µM [rising, partial curve] | 10.3 µM [rising, partial curve, poor fit]
22 | O=C(Cc1cc(=O)oc2cc(O)ccc12)NCC1CCC(C(=O)O)CC1 (stereo not given) | 8.36 | – | –
23 | CCOc1cc2[nH]c(=S)n(CCN3CCCCC3C)c(=O)c2cc1OCC (stereo not given) | -40.7 | 32.6 µM [falling, single point] | 29.1 µM [falling, single point]
24 | COc1ccc(NC(=O)COC(=O)CCC(=O)c2cccs2)cc1OC | -54.5 | 3.66 µM [falling, partial curve, poor fit] | 5.17 µM [falling, partial curve, poor fit]
25 | Cc1ccc(C(=O)CSc2nc(O)cc(=O)[nH]2)cc1C | 32.9 | – | 32.6 µM [rising, single point]
26 | CCOC(=O)c1ccc(NC(=S)Nc2cc(C)cc(C)n2)cc1 | -8 | – | –
27 | COC(=O)CCCCNC(=O)Nc1ccccc1 | -17.3 | – | –
28 | COc1ccc(/C=N/NC(=O)c2ccoc2C)cc1CN1CCN(c2ccc(F)cc2)CC1 | 57 | – | 8.2 µM [rising, partial curve]
29 | CC(C)(CC(=O)O)CC(=O)Nc1ccccc1Oc1ccccc1 | 18.5 | – | –
30 | O=C(O)CSCCn1cccn1 | -42.4 | 2.31 µM [falling, full curve] | 2.31 µM [falling, full curve]
31 | Cc1noc(C)c1C(=O)OCC(=O)c1c(N)n(CC(C)C)c(=O)n(C)c1=O | -10.1 | 29.1 µM [falling, partial curve, poor fit] | 0.103 µM [rising, full curve, poor fit]
32 | O=C(Nc1ccc(Cc2ccncc2)cc1)C1CCC(N2C(=O)C3C4C=CC(C4)C3C2=O)CC1 (stereo not given) | -23.5 | – | –
33 | OC[C@@H](O)[C@@H](O)[C@H](O)[C@H](O)CO | -24.5 | 0.13 µM [falling, full curve, poor fit] | –
34 | N#Cc1ccsc1NC(=O)COC(=O)c1cc2ccccc2cc1O | -19.5 | 5.8 µM [rising, full curve] | –
35 | C/C(=N\NC(=O)C1(C)CC1(Br)Br)c1ccc(NC(=O)C2CCC2)cc1 (stereo not given) | -30 | 29.1 µM [falling, single point] | –
36 | O=C(NCC1CCCN1S(=O)(=O)c1cccs1)c1cccc(Cl)c1 (stereo not given) | 59.6 | – | 18.4 µM [rising, partial curve]
37 | CCOC(=O)Nc1c(C)n(C)n(-c2ccccc2)c1=O | -9.3 | – | 0.164 µM [falling, full curve]
38 | Nc1c(C(=O)c2cccs2)oc2ccccc12 | -17.5 | 0.0184 µM [rising, full curve, poor fit] | –
39 | COc1ccc(C2/C=C\CN(C(=O)c3ccccc3)CC(=O)N2Cc2ccc(F)cc2)cc1 (stereo not given) | -35.5 | 29.1 µM [falling, single point] | 29.1 µM [falling, single point]
40 | CN(C)/C=C(\C#N)C(=O)c1cccnc1Oc1ccc(F)cc1F | – | 29.1 µM [rising, single point] | –

A draw from above in order of length of the SMILES, descending.
Row | Compound | cell number change [%] | AC50 [1] | AC50 [2]
35 | C/C(=N\NC(=O)C1(C)CC1(Br)Br)c1ccc(NC(=O)C2CCC2)cc1 (stereo not given) | -30 | 29.1 µM [falling, single point] | –
36 | O=C(NCC1CCCN1S(=O)(=O)c1cccs1)c1cccc(Cl)c1 (stereo not given) | 59.6 | – | 18.4 µM [rising, partial curve]
38 | Nc1c(C(=O)c2cccs2)oc2ccccc12 | -17.5 | 0.0184 µM [rising, full curve, poor fit] | –

Next compounds follow:

Row | Compound | cell number change [%] | AC50 [1] | AC50 [2]
41 | COc1ccc(C2/C=C\CN(C(=O)Oc3ccc(C(F)(F)F)cc3)CC(=O)N2Cc2ccc(F)cc2)cc1 (stereo not given) | 7.57 | 1.64 µM [rising, partial curve, poor fit] | –
42 | COCCNc1ncnc2c1cnn2-c1ccc(Cl)cc1 | -0.101 | 0.00461 µM [rising, full curve, poor fit] | –
43 | Cn1c(=O)[nH]c(=O)c2c1nc(N1CCCCCC1)n2Cc1cccc2ccccc12 | 8.33 | – | –
44 | Cc1cccc(NC(=O)COC(=O)c2ccccn2)c1 | -2.94 | 6.51 µM [rising, single point] | –
45 | C/C(=N\Nc1nc(C)cc(C)n1)c1ccc(C)o1 | 35.1 | 29.1 µM [rising, single point] | 29.1 µM [rising, single point]
46 | CCOC(=O)c1sc(NC(=O)c2ccc(C)o2)nc1C | 23.1 | 1.84 µM [rising, full curve] | 0.651 µM [rising, full curve, poor fit]
47 | CCN(C(=O)CSc1ncn[nH]1)C1CCCCC1 | 37.4 | 0.517 µM [falling, full curve] | 0.146 µM [rising, full curve, poor fit]
48 | O=C(Nc1cccc2ccccc12)N1CC=CCC1 | 21.3 | 29.1 µM [rising, single point] | –
49 | COc1ccc(OC(=O)c2cccnc2)cc1 | -30.5 | – | 18.4 µM [falling, single point]
50 | CCc1ccc(S(=O)(=O)NCC2(N3CCOCC3)CCCCC2)cc1 | -6.19 | 0.461 µM [rising, full curve, poor fit] | –
51 | COc1ccc(C(=O)N[C@H](C(=O)Nc2nc3c(s2)CCCC3)C(C)C)cc1 | 13.2 | 6.51 µM [rising, full curve, poor fit] | –
52 | CC(C)CC(NC(=O)c1cccs1)c1nnc(SCc2ccc(Cl)c(Cl)c2)n1C (stereo not given) | -20.2 | 16.4 µM [falling, single point] | –
53 | Cn1c(C(=O)NCc2cccs2)cc2c(=O)n(C)c3ccccc3c21 | 15.5 | 32.6 µM [rising, single point] | –
54 | Nc1c(S(=O)(=O)c2cccs2)c2nc3ccccc3nc2n1Cc1cccs1 | -14.1 | – | –
55 | CCN(CC)CCN1C(=O)C(=O)/C(=C(/O)c2ccc(S(=O)(=O)N3CCOCC3)cc2)C1c1ccccc1 (stereo not given) | 14.7 | 0.116 µM [rising, full curve, poor fit] | –
56 | O=C(CCS(=O)(=O)c1cccc2nonc12)Nc1cccc2c1CCCC2 | 33.4 | 29.1 µM [rising, single point] | 29.1 µM [rising, single point]
57 | CC(Oc1ccc(Cl)cc1)C(=O)N(C)CC(=O)Nc1ccc(N2CCOCC2)cc1 (stereo not given) | 27 | 18.4 µM [rising, partial curve] | –
58 | CCOC(=O)c1cc(-c2ccncc2)nc2c1c(C)nn2C | -83 | 9.2 µM [rising, partial curve, poor fit] | 16.4 µM [falling, single point]
59 | Cc1cccc(/C=N\NC(=O)c2ccccc2-n2cccc2)c1 | -50.3 | 29.1 µM [falling, single point] | 32.6 µM [falling, single point]
